# From PubChem BioAssay AID504834 (National Center for Advancing Translational Sciences (NCATS), 2011)
# Among all 320,000 compounds or so, about 22,000 (6.9%) were called active. Inconclusive means that the source gave no clear call. Such entries were picked first, then a sample of the others. Calls come from the whole dose curve; as a rule, active = well fitted inhibition curve with a large enough effect; inconclusive = small, poorly fitted or top-dose-only effect, or another doubt; inactive = no such curve, though single readings can be large or run the other way. Potencies of inconclusive entries are doubtful fits and often do not repeat.
# Test: Primary qHTS for delayed death inhibitors of the malarial parasite plastid, 96 hour incubation
# Details: P. falciparum luciferase reporter growth; series mostly up to 28.7 µM
# How it was run: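 Luminescence readout: decreased luciferase signal marks inhibited growth of reporter-expressing P. falciparum in infected red cells (2% hematocrit, 0.05% parasitemia final), exposed to compound two generations (96 h, 37 C, 5% CO2).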
# Potency is the fitted concentration of half-maximal effect.
row,Compound,Potency
1,COc1cccc(NC(=O)CN(C)C(=O)c2ccc(N3CCOCC3)c([N+](=O)[O-])c2)c1,inactive
2,O=C(CCc1nnc2ccc(N3CCCCC3)nn12)NCC1CCN(Cc2ccc(F)cc2)CC1,active: 10.4 µM
3,CC1(C)Cc2cccc(OCC(=O)Nc3ccc(S(N)(=O)=O)cc3)c2O1,inactive
4,Cc1ccc(S(=O)(=O)N(C)c2ccc(C(=O)Nc3ccc(C)cn3)cc2)cc1,"inconclusive: 13.1 µM [inhibitor, single point]"
5,COc1ccc(NC(=O)C2C3C=CC4(O3)C2C(=O)N(CCCN2CCCC(C)C2)C4C(=O)NC2CCCCC2)cc1 (configuration not stated),"inconclusive: 13.1 µM [inhibitor, partial curve, poor fit]"
6,CCc1ccc(N2C(=O)NC(=O)/C(=C/c3cccn3CCOc3ccc(C(C)CC)cc3)C2=O)cc1 (configuration not stated),inactive
7,C#CCN(CC=C)C(=O)c1ccc2nc(C3CCCCC3)oc2c1,"inconclusive: 2.62 µM [inhibitor, single point]"
8,Cc1cc(C)cc(NC(=S)N(Cc2ccc(Cl)cc2)Cc2ccc(C(=O)O)cc2)c1,"inconclusive: 9.28 µM [inhibitor, partial curve, poor fit]"
9,COCCCNC(=O)c1cc2c(-c3ccc(Cl)cc3)nn(C)c2s1,inactive
10,CC(C)N1CCN(c2ccc(O)cc2)CC1,"inconclusive: 18.5 µM [inhibitor, single point]"
11,CCOC(=O)NCc1ccc2c(c1)OCO2,"inconclusive: 1.04 µM [inhibitor, single point]"
12,CCOc1ccccc1NC(=O)/C=C/c1ccccc1[N+](=O)[O-],"inconclusive: 4.15 µM [inhibitor, single point]"
13,O=C(NCc1ccco1)C1CCN(S(=O)(=O)Cc2ccccc2)CC1,"inconclusive: 9.28 µM [inhibitor, partial curve, poor fit]"
14,Cc1nc(NC(=O)c2cc3ccccc3o2)ccc1Br,inactive
15,CCOC(=O)C1CCN(Cc2oc(CO)cc(=O)c2O)CC1,"inconclusive: 16.5 µM [inhibitor, single point]"
16,CC(C)(C)c1ccc(OCC(O)CN2CCN(c3ccccn3)CC2)cc1 (configuration not stated),"inconclusive: 18.5 µM [inhibitor, single point]"
17,CCOC(=O)CCCNC(=O)COC(=O)[C@@H]1CCCN1S(=O)(=O)c1ccc(Cl)cc1,"inconclusive: 0.117 µM [inhibitor, partial curve, poor fit]"
18,O=C(NC1CCCCC1)C1CCCN(c2nnnn2-c2ccccc2)C1 (configuration not stated),"inconclusive: 8.28 µM [inhibitor, partial curve, poor fit]"
19,Oc1ccc(N=Nc2ccc3c(c2)OCCO3)c2cccnc12,"inconclusive: 0.522 µM [inhibitor, full curve]"
20,Cc1nc(N)sc1N=Nc1ccc(F)cc1,"inconclusive: 13.1 µM [inhibitor, single point]"
21,COc1ccc(NS(=O)(=O)c2cccc(C(=O)N/N=C/c3cn(-c4ccccc4)nc3-c3ccc(OC)cc3)c2)cc1,"inconclusive: 3.7 µM [inhibitor, full curve]"
22,CC(C)(C)c1cnnn1-c1ccc([N+](=O)[O-])cc1,"inconclusive: 6.57 µM [inhibitor, partial curve, poor fit]"
23,Cc1noc(NS(=O)(=O)c2ccc(NC(=O)CSc3ncccn3)cc2)c1C,"inconclusive: 1.47 µM [inhibitor, partial curve, poor fit]"

row,Compound,Potency
1,Cc1ccc(C(=O)Nc2ccccc2C(=O)NC(CC(=O)O)C(=O)O)cc1 (configuration not stated),"inconclusive: 11.7 µM [inhibitor, single point]"
2,O=C(/C=C/c1ccccc1Cl)NCc1ccco1,"inconclusive: 18.5 µM [inhibitor, single point]"
3,O=S(=O)(NCc1csc(-c2cccs2)n1)c1ccc(Cl)cc1,inactive
4,CCOC(=O)N1CCN(C(=O)CSc2nnc(-c3cc(OC)cc(OC)c3)o2)CC1,"inconclusive: 4.65 µM [inhibitor, partial curve, poor fit]"
5,CN(C)c1ccc(C(=O)N/N=C/C23CC[C@@H](O)CC2(O)CC[C@@H]2[C@@H]3CCC3(C)C(C4=CC(=O)OC4)CCC23O)cc1 (some centres not stated),"inconclusive: 7.38 µM [inhibitor, partial curve, poor fit]"
6,O=C(OCc1c(-c2ccccc2)ncc2ccccc12)c1cccc(Br)c1,"inconclusive: 10.4 µM [inhibitor, partial curve, poor fit]"
7,Cc1ccc(C(=O)NCCCNC(=O)c2ccc(Cl)cc2)cn1,"inconclusive: 11.7 µM [inhibitor, single point]"
8,N#C/C(=C\c1cn(Cc2ccccc2F)c2ccccc12)C(=O)NCc1ccco1,inactive
9,CC1CCCN(S(=O)(=O)c2cccc(-c3cn4cccnc4n3)c2)C1 (configuration not stated),"inconclusive: 9.28 µM [inhibitor, partial curve, poor fit]"
10,Cc1ccc(S(=O)(=O)NCC(c2ccc3c(c2)OCO3)N2CCN(c3ccccc3)CC2)cc1 (configuration not stated),"inconclusive: 10.4 µM [inhibitor, single point]"
11,COc1ccc(NC(=O)COc2ccc(C)cc2)c([N+](=O)[O-])c1,inactive
12,COc1ccc(C(=O)NCCc2cn3ccccc3n2)cc1,inactive
13,O=C(NC(Cc1cnc[nH]1)C(=O)O)c1ccccc1 (configuration not stated),"inconclusive: 4.15 µM [inhibitor, partial curve, poor fit]"
14,O=C(Cc1ccc2c(c1)OCCO2)Nc1cc(Cl)ccc1N1CCOCC1,"inconclusive: 10.4 µM [inhibitor, partial curve, poor fit]"
15,COc1ccc(OC)c(NC(=O)c2ccc(OCC(=O)N3CCOCC3)c(OC)c2)c1,inactive
16,C[C@@]12C(=O)N(c3cccc(Br)c3)C(=O)N1[C@H](c1ccc(Cl)cc1)[C@@H]1C(=O)N(C3CCCCC3)C(=O)[C@@H]12,active: 16.5 µM
17,Nc1nnc(SCC(=O)N2CCCCC2)s1,inactive
18,O=C(CSCc1cc(=O)n2nc(C3CC3)sc2n1)Nc1ccccc1Cl,active: 3.29 µM
19,Cc1nc2ccc([N+](=O)[O-])cc2nc1C,inactive
20,CCC(=O)NC(c1ccccc1Cl)c1c(O)ccc2ccccc12 (configuration not stated),inactive
21,NC1=C([N+](=O)[O-])C(c2ccc3c(c2)OCO3)C2=C(CCCC2=O)O1 (configuration not stated),"inconclusive: 14.7 µM [inhibitor, partial curve, poor fit]"
22,COc1cc(NC(=O)Nc2cccc3cccnc23)cc(OC)c1OC,inactive
23,CC(C)(C)NCC(O)COc1ccccc1C(C)(C)C (configuration not stated),"inconclusive: 14.7 µM [inhibitor, single point]"

# Five consecutive compounds already listed, quoted:
row,Compound,Potency
2,O=C(/C=C/c1ccccc1Cl)NCc1ccco1,"inconclusive: 18.5 µM [inhibitor, single point]"
3,O=S(=O)(NCc1csc(-c2cccs2)n1)c1ccc(Cl)cc1,inactive
4,CCOC(=O)N1CCN(C(=O)CSc2nnc(-c3cc(OC)cc(OC)c3)o2)CC1,"inconclusive: 4.65 µM [inhibitor, partial curve, poor fit]"
5,CN(C)c1ccc(C(=O)N/N=C/C23CC[C@@H](O)CC2(O)CC[C@@H]2[C@@H]3CCC3(C)C(C4=CC(=O)OC4)CCC23O)cc1 (some centres not stated),"inconclusive: 7.38 µM [inhibitor, partial curve, poor fit]"
6,O=C(OCc1c(-c2ccccc2)ncc2ccccc12)c1cccc(Br)c1,"inconclusive: 10.4 µM [inhibitor, partial curve, poor fit]"

# Following part

row,Compound,Potency
1,CCC(=O)N1CCN(c2ccc(Cl)cc2NC(=O)c2ccc([N+](=O)[O-])o2)CC1,active: 10.4 µM
2,COc1cc(/C=c2\sc3n(c2=O)CCCN=3)ccc1O,inactive
3,Cc1cc(NC(=O)CSc2nnc(COc3cccc(C)c3C)n2C)no1,"inconclusive: 18.5 µM [inhibitor, single point]"
4,Cc1ccc(O)c(C2=Nc3ccccc3N=C(c3cccs3)C2)c1,"inconclusive: 18.5 µM [inhibitor, single point]"
5,COc1ccc(S(=O)(=O)N2CCc3cc(OC)c(OC)cc3C2)cc1,inactive
6,Cc1c(C(=O)N2CCC(N3CCSCC3)CC2)oc2c(F)cccc12,"inconclusive: 0.738 µM [inhibitor, full curve, poor fit]"
7,O=C(COc1ccc2ccccc2c1)Nc1ccncc1,"inconclusive: 11.7 µM [inhibitor, single point]"
8,Cc1cc(=O)n2nc(N3CCCC(C(=O)NCCC4=CCCCC4)C3)sc2n1 (configuration not stated),"inconclusive: 0.233 µM [inhibitor, partial curve, poor fit]"
9,COc1ccccc1C(=O)Nc1ccc(C)c(S(=O)(=O)N2CCCCC2)c1,"inconclusive: 10.4 µM [inhibitor, single point]"
10,CNS(=O)(=O)c1cccc(C(=O)OCC(=O)N2CC(C)OC(C)C2)c1 (configuration not stated),inactive
11,CCCN(CC(=O)Nc1ccccc1C)C(=O)c1cccc(S(=O)(=O)N2CCc3ccccc3C2)c1,"inconclusive: 9.28 µM [inhibitor, single point]"
12,Cc1cccc(N(C(=O)c2csnn2)C(C(=O)NC(C)(C)C)c2ccncc2)c1 (configuration not stated),inactive
13,O=C(NCCc1ccccc1)C1c2ccccc2C(=O)N1Cc1cccs1 (configuration not stated),"inconclusive: 18.5 µM [inhibitor, single point]"
14,Cc1nc(-c2ccc(F)cc2)c(CC(=O)NCC(=O)Nc2ccc(F)c(F)c2)s1,"inconclusive: 10.4 µM [inhibitor, single point]"
15,COc1ccc(CCC(=O)NCCS(=O)(=O)N2CCN(c3ccc(OC)cc3)CC2)cc1,inactive
16,CCOC(=O)c1sc(-c2ccccc2)cc1NC(=O)Nc1ccccc1,"inconclusive: 18.5 µM [inhibitor, single point]"
17,COCCN1CCN(C(=O)c2cc(COc3ccc(F)c(F)c3)on2)CC1,"inconclusive: 3.7 µM [inhibitor, full curve]"
18,CC1=NN(c2ccc(Cl)c(C(=O)O)c2)C(=O)C1,"inconclusive: 1.65 µM [inhibitor, full curve, poor fit]"
19,CCc1nnc(NC(=O)c2ccc(S(=O)(=O)N(C)c3ccccc3)cc2)o1,"inconclusive: 14.7 µM [inhibitor, partial curve, poor fit]"
20,Cn1cccc1C(=O)NCC(c1ccc(F)cc1)N1CCOCC1 (configuration not stated),"inconclusive: 3.7 µM [inhibitor, partial curve]"
21,Cc1ccc(Nc2n[nH]c(C)c2[N+](=O)[O-])cc1C,"inconclusive: 18.5 µM [inhibitor, single point]"
